Patent US20170189504A1, “NOVEL PEPTIDES AND COMBINATION OF PEPTIDES FOR USE IN IMMUNOTHERAPY AGAINST VARIOUS CANCERS” (immatics biotechnologies GmbH, priority 2015, published 2017)

Key:
HLA-A*02 = assay: Identification and relative LC-MS quantitation of HLA-A*02-presented tumor-associated peptides on tissue samples (presentation profiles, Tables 13A, 13B, 15, FIG. 1); parameters: species or system human; key to Presentation score NHL / Presentation score CLL / Presentation score BRCA / Presentation score AML / Presentation score GB / Presentation score NSCLC / Presentation score GBC_CCC / Presentation score UEC / Presentation score MEL / Presentation score OSCAR / Presentation score GC / Presentation score UBC / Presentation score OC / Presentation score RCC / Presentation score CRC / Presentation score PCA / Presentation score HCC / Presentation score PC / Presentation score SCLC: specifically presented on tumors (++++); very highly over-presented on tumors compared to a panel of normal tissues (+++); highly over-presented on tumors compared to a panel of normal tissues (++); over-presented on tumors compared to a panel of normal tissues (+); conditions: for Peptide Presentation on cancer entities: HLA-A*02-binding tumor-associated peptides
source genes (mRNA) [1] = assay: Gene and exon expression of source genes, TCGA tumor samples compared with normal tissue samples (Lonsdale, 2013) (Table 17); parameters: species or system human; conditions: for Over-expression category of source gene (target coverage), BLCA: BLCA = Bladder urothelial carcinoma (N = 408); for Over-expression category of source gene (target coverage), BRCA: BRCA = Breast cancer (N = 1104), tumors more than 2-fold above highest 75% percentile of normal tissues; for Over-expression category of source gene (target coverage), CHOL: CHOL = Cholangiocarcinoma (N = 36); for Over-expression category of source gene (target coverage), COAD: COAD = Colon and rectal adenocarcinoma (N = 462); for Over-expression category of source gene (target coverage), DLBC: DLBC = Lymphoid neoplasm diffuse large B-cell lymphoma (N = 48); for Over-expression category of source gene (target coverage), ESCA: ESCA = Esophageal cancer (N = 185); for Over-expression category of source gene (target coverage), GBM: GBM = Glioblastoma multiforme (N = 169); for Over-expression category of source gene (target coverage), KICH: KICH = Kidney chromophobe (N = 66); for Over-expression category of source gene (target coverage), KIRP: KIRP = Papillary kidney carcinoma (N = 291); for Over-expression category of source gene (target coverage), LAML: LAML = Acute Myeloid Leukemia (N = 173); for Over-expression category of source gene (target coverage), LUAD: LUAD = Lung adenocarcinoma (N = 517); for Over-expression category of source gene (target coverage), LUSC: LUSC = Lung squamous cell carcinoma (N = 503); for Over-expression category of source gene (target coverage), OV: OV = Ovarian serous cystadenocarcinoma (N = 309); for Over-expression category of source gene (target coverage), PAAD: PAAD = Pancreatic ductal adenocarcinoma (N = 179); for Over-expression category of source gene (target coverage), PRAD: PRAD = Prostate adenocarcinoma (N = 498); for Over-expression category of source gene (target coverage), READ: READ = Colon and rectal adenocarcinoma (N = 167); for Over-expression category of source gene (target coverage), SKCM: SKCM = Skin cutaneous melanoma (N = 473); for Over-expression category of source gene (target coverage), STAD: STAD = Stomach adenocarcinoma (N = 415); for Over-expression category of source gene (target coverage), UCEC: UCEC = Uterine corpus endometrial carcinoma (N = 546)
source genes (mRNA) [2] = assay: Expression profiling of source genes by in-house RNASeq of tumor and normal tissues (Table 18, FIG. 2); parameters: species or system human; key: very highly over-expressed in tumors compared to a panel of normal tissues (+++); highly over-expressed in tumors compared to a panel of normal tissues (++); over-expressed in tumors compared to a panel of normal tissues (+); conditions: source gene of peptide; for Expression score BRCA: BRCA tumors vs panel of normal tissues; for Expression score AML: acute myeloid leukemia (N = 11) vs panel of normal tissues; for Expression score OSCAR: esophageal cancer incl. gastric-esophageal junction (N = 11) vs panel of normal tissues; for Expression score GC: gastric cancer (N = 11) vs panel of normal tissues; for Expression score NHL: non-Hodgkin lymphoma (N = 10) vs panel of normal tissues; for Expression score NSCLC: non-small cell lung cancer (N = 11) vs panel of normal tissues; for Expression score OC: ovarian cancer (N = 12) vs panel of normal tissues; for Expression score SCLC: small cell lung cancer (N = 10) vs panel of normal tissues; for Expression score UBC: urinary bladder cancer (N = 10) vs panel of normal tissues; for Expression score UEC: uterine cancer (N = 10) vs panel of normal tissues
[3] = Table 13A, cancer entities on which the peptide was found presented
[4] = Table 13B, presentation on additional cancer entities

247: peptide found in DPP3 (gene looked up) (ALYEGYATV; listed as Homo sapiens) [compound 247]
Presentation score BRCA (HLA-A*02; HLA-A*02 peptides, breast cancer (N = 17) vs panel of normal tissues (N = 262)): ++ | Presentation score OSCAR (HLA-A*02; HLA-A*02 peptides, esophageal cancer, including cancer of the gastric-esophageal junction (N = 17) vs panel of normal tissues (N = 262)): + | Presentation score SCLC (HLA-A*02; HLA-A*02 peptides, small cell lung cancer (N = 19) vs panel of normal tissues (N = 262)): + | Presentation score UBC (HLA-A*02; HLA-A*02 peptides, urinary bladder cancer (N = 16) vs panel of normal tissues (N = 262)): +++ | Peptide Presentation on cancer entities (HLA-A*02; [3]): NSCLC, HCC, CLL, OSCAR, OC, SCLC, UBC, UEC, BRCA, GBC_CCC, MEL, RCC, CRC, PC, NHL | Peptide Presentation on cancer entities (HLA-A*02; [4]): AML, HNSCC | Over-expression category of source gene (target coverage), BLCA (source genes (mRNA) [1]; same cutoff): A (>=50% of tumors above the cutoff) | Over-expression category of source gene (target coverage), BRCA (source genes (mRNA) [1]): B (>= 20% of tumors above the cutoff, but <50%) | Over-expression category of source gene (target coverage), CHOL (source genes (mRNA) [1]; same cutoff): A (>=50% of tumors above the cutoff) | Over-expression category of source gene (target coverage), COAD (source genes (mRNA) [1]; same cutoff): A (>=50% of tumors above the cutoff) | Over-expression category of source gene (target coverage), DLBC (source genes (mRNA) [1]; same cutoff): A (>=50% of tumors above the cutoff) | Over-expression category of source gene (target coverage), ESCA (source genes (mRNA) [1]; same cutoff): A (>=50% of tumors above the cutoff) | Over-expression category of source gene (target coverage), GBM (source genes (mRNA) [1]; same cutoff): C (>=5% of tumors above the cutoff, but <20%) | Over-expression category of source gene (target coverage), KICH (source genes (mRNA) [1]; same cutoff): C (>=5% of tumors above the cutoff, but <20%) | Over-expression category of source gene (target coverage), KIRP (source genes (mRNA) [1]; same cutoff): B (>= 20% of tumors above the cutoff, but <50%) | Over-expression category of source gene (target coverage), LAML (source genes (mRNA) [1]; same cutoff): C (>=5% of tumors above the cutoff, but <20%) | Over-expression category of source gene (target coverage), LIHC (source genes (mRNA) [1]; LIHC = Liver hepatocellular carcinoma (N = 374), same cutoff): C (>=5% of tumors above the cutoff, but <20%) | Over-expression category of source gene (target coverage), LUAD (source genes (mRNA) [1]; same cutoff): B (>= 20% of tumors above the cutoff, but <50%) | Over-expression category of source gene (target coverage), LUSC (source genes (mRNA) [1]; same cutoff): A (>=50% of tumors above the cutoff) | Over-expression category of source gene (target coverage), OV (source genes (mRNA) [1]; same cutoff): A (>=50% of tumors above the cutoff) | Over-expression category of source gene (target coverage), PAAD (source genes (mRNA) [1]; same cutoff): B (>= 20% of tumors above the cutoff, but <50%) | Over-expression category of source gene (target coverage), PRAD (source genes (mRNA) [1]; same cutoff): B (>= 20% of tumors above the cutoff, but <50%) | Over-expression category of source gene (target coverage), READ (source genes (mRNA) [1]; same cutoff): A (>=50% of tumors above the cutoff) | Over-expression category of source gene (target coverage), SKCM (source genes (mRNA) [1]; same cutoff): B (>= 20% of tumors above the cutoff, but <50%) | Over-expression category of source gene (target coverage), STAD (source genes (mRNA) [1]; same cutoff): A (>=50% of tumors above the cutoff) | Over-expression category of source gene (target coverage), UCEC (source genes (mRNA) [1]; same cutoff): A (>=50% of tumors above the cutoff) | Expression score BRCA (source genes (mRNA) [2]): + | Expression score AML (source genes (mRNA) [2]): + | Expression score OSCAR (source genes (mRNA) [2]): ++ | Expression score GC (source genes (mRNA) [2]): + | Expression score NHL (source genes (mRNA) [2]): + | Expression score NSCLC (source genes (mRNA) [2]): + | Expression score OC (source genes (mRNA) [2]): + | Expression score SCLC (source genes (mRNA) [2]): + | Expression score UBC (source genes (mRNA) [2]): + | Expression score UEC (source genes (mRNA) [2]): +

249: peptide found in PRKDC (gene looked up) (GLCERLVSL; listed as Homo sapiens) [compound 249]
Presentation score CLL (HLA-A*02; HLA-A*02 peptides, chronic lymphocytic leukemia (N = 17) vs panel of normal tissues (N = 262)): + | Presentation score CRC (HLA-A*02; HLA-A*02 peptides, colorectal cancer (N = 28) vs panel of normal tissues (N = 262)): +++ | Presentation score GB (HLA-A*02; HLA-A*02 peptides, glioblastoma (N = 41) vs panel of normal tissues (N = 262)): ++ | Presentation score NSCLC (HLA-A*02; HLA-A*02 peptides, non-small cell lung cancer (N = 90) vs panel of normal tissues (N = 262)): + | Presentation score RCC (HLA-A*02; HLA-A*02 peptides, renal cell carcinoma (N = 20) vs panel of normal tissues (N = 262)): +++ | Peptide Presentation on cancer entities (HLA-A*02; [3]): GB, NSCLC, CLL, RCC, CRC | Peptide Presentation on cancer entities (HLA-A*02; [4]): MEL, NHL, HNSCC | Over-expression category of source gene (target coverage), BLCA (source genes (mRNA) [1]; same cutoff): B (>= 20% of tumors above the cutoff, but <50%) | Over-expression category of source gene (target coverage), BRCA (source genes (mRNA) [1]): A (>=50% of tumors above the cutoff) | Over-expression category of source gene (target coverage), CHOL (source genes (mRNA) [1]; same cutoff): C (>=5% of tumors above the cutoff, but <20%) | Over-expression category of source gene (target coverage), COAD (source genes (mRNA) [1]; same cutoff): B (>= 20% of tumors above the cutoff, but <50%) | Over-expression category of source gene (target coverage), DLBC (source genes (mRNA) [1]; same cutoff): B (>= 20% of tumors above the cutoff, but <50%) | Over-expression category of source gene (target coverage), ESCA (source genes (mRNA) [1]; same cutoff): A (>=50% of tumors above the cutoff) | Over-expression category of source gene (target coverage), GBM (source genes (mRNA) [1]; same cutoff): C (>=5% of tumors above the cutoff, but <20%) | Over-expression category of source gene (target coverage), KICH (source genes (mRNA) [1]; same cutoff): C (>=5% of tumors above the cutoff, but <20%) | Over-expression category of source gene (target coverage), KIRC (source genes (mRNA) [1]; KIRC = Clear cell kidney carcinoma (N = 534), same cutoff): C (>=5% of tumors above the cutoff, but <20%) | Over-expression category of source gene (target coverage), KIRP (source genes (mRNA) [1]; same cutoff): C (>=5% of tumors above the cutoff, but <20%) | Over-expression category of source gene (target coverage), LAML (source genes (mRNA) [1]; same cutoff): A (>=50% of tumors above the cutoff) | Over-expression category of source gene (target coverage), LGG (source genes (mRNA) [1]; LGG = Lower grade glioma (N = 534), same cutoff): B (>= 20% of tumors above the cutoff, but <50%) | Over-expression category of source gene (target coverage), LUAD (source genes (mRNA) [1]; same cutoff): B (>= 20% of tumors above the cutoff, but <50%) | Over-expression category of source gene (target coverage), LUSC (source genes (mRNA) [1]; same cutoff): A (>=50% of tumors above the cutoff) | Over-expression category of source gene (target coverage), OV (source genes (mRNA) [1]; same cutoff): B (>= 20% of tumors above the cutoff, but <50%) | Over-expression category of source gene (target coverage), PAAD (source genes (mRNA) [1]; same cutoff): C (>=5% of tumors above the cutoff, but <20%) | Over-expression category of source gene (target coverage), PRAD (source genes (mRNA) [1]; same cutoff): C (>=5% of tumors above the cutoff, but <20%) | Over-expression category of source gene (target coverage), READ (source genes (mRNA) [1]; same cutoff): B (>= 20% of tumors above the cutoff, but <50%) | Over-expression category of source gene (target coverage), SKCM (source genes (mRNA) [1]; same cutoff): A (>=50% of tumors above the cutoff) | Over-expression category of source gene (target coverage), STAD (source genes (mRNA) [1]; same cutoff): A (>=50% of tumors above the cutoff) | Over-expression category of source gene (target coverage), UCEC (source genes (mRNA) [1]; same cutoff): C (>=5% of tumors above the cutoff, but <20%) | Expression score BRCA (source genes (mRNA) [2]): + | Expression score AML (source genes (mRNA) [2]): + | Expression score CRC (source genes (mRNA) [2]; colorectal cancer (N = 20) vs panel of normal tissues): + | Expression score OSCAR (source genes (mRNA) [2]): + | Expression score GBC_CCC (source genes (mRNA) [2]; gallbladder adenocarcinoma and cholangiocarcinoma (N = 3) vs panel of normal tissues): + | Expression score GC (source genes (mRNA) [2]): + | Expression score GB (source genes (mRNA) [2]; glioblastoma (N = 24) vs panel of normal tissues): + | Expression score NHL (source genes (mRNA) [2]): + | Expression score NSCLC (source genes (mRNA) [2]): ++ | Expression score OC (source genes (mRNA) [2]): + | Expression score PC (source genes (mRNA) [2]; pancreatic cancer (N = 26) vs panel of normal tissues): + | Expression score SCLC (source genes (mRNA) [2]): ++ | Expression score UBC (source genes (mRNA) [2]): + | Expression score UEC (source genes (mRNA) [2]): +

For part of these data: Expression values are those of the mRNA of the gene that encodes the peptide; a gene is named only where it was looked up.
